Reference: publication PMC7819943, “Rice protein-binding microarrays: a tool to detect cis-acting elements near promoter regions in rice”
Some of the results follow.

By UniProt entry, the sequences of proteins in these tests, tags left out.
UniProt Q0JBA9, entry or part of it: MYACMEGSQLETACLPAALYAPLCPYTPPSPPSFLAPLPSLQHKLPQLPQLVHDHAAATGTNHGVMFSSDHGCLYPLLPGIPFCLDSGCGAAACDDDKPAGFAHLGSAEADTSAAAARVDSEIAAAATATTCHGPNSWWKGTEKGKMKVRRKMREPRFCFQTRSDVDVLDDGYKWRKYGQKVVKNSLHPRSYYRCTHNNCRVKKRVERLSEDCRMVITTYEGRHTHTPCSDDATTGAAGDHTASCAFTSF

Each sequence was assayed against OsWRKY34 (Oryza sativa, UniProt Q0JBA9 1-250) (assay: protein-binding microarray (RPBM); PBS, 2% BSA, 51.3 ng/ul salmon testes DNA, 50 uM zinc acetate, 200 nM TF, 25 C, 1 h; high values mean tight binding). Conditions: protein: recombinant; tags: N-terminal polyhistidine and DsRed monomer fusion (pET32a); label: CyDye5-dUTP incorporated in the synthesized complementary strand; 3' TTTTT single-stranded linker to array surface; dsDNA, one strand shown.
How it was run: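 The binding signal for each feature is its fluorescence intensity in arbitrary units. An Axon 4000B scanner was used to read a custom Agilent array that had been made double-stranded with Cy5-dUTP primer extension, blocked with 2% BSA, incubated at 25 °C for 1 h with 200 nM protein in PBS, 2% BSA, salmon testes DNA and 50 µM zinc acetate, and washed. The protein was an N-terminal polyhistidine–DsRed transcription factor fusion from E. coli BL21-CodonPlus, purified on Ni–NTA.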
For “GATACTGTTTTCGCAAAACTAATACTCCCTCCGTTTTTTACGGAGTCACCTAGTGCAG”, the binding signal was 8610 fluorescence intensity (a.u.).
With “CGGTCACCTCCTCCACCTCCTCCCGCACCGCCGCCCGCCACGGAGTCACCTAGTGCAG” the binding signal was 9180 fluorescence intensity (a.u.).
“CATAGAAGTTGCATTGCTCTGTCCTTGTCTCTGCTCTGCCCGGAGTCACCTAGTGCAG” was tested, and the binding signal was 9920 fluorescence intensity (a.u.).
With “GGGGAGGGAAGGGATGGATCGGATGCGGGTTCGGGCGGTTCGGAGTCACCTAGTGCAG” the binding signal was 8910 fluorescence intensity (a.u.).
“GCTGTCGTCTCTCGCCACCGCATACCGCCCACCCAACCCACGGAGTCACCTAGTGCAG” was tested, and the binding signal was 11500 fluorescence intensity (a.u.).
For “ATATCTCTTCGTTCCTTTTGCGACAGCATCGGCGTACCAGCGGAGTCACCTAGTGCAG”, the binding signal was 9330 fluorescence intensity (a.u.).
“ATGGGTGGAAAATTTGGAGATTGACCTGTTGACTTAGGGTCGGAGTCACCTAGTGCAG” was tested, and the binding signal was 8940 fluorescence intensity (a.u.).
“CTGTCATTTCAGTTCTCTGTAGATTTTCGTGGGAGGCAATCGGAGTCACCTAGTGCAG” was tested, and the binding signal was 8180 fluorescence intensity (a.u.).
With “ATCCCCACACGTGGGACCCACGTGAGGCCCACGCTGACTCCGGAGTCACCTAGTGCAG” the binding signal was 9690 fluorescence intensity (a.u.).
With “GCATATCAGCATCTCCATCGCCATCGGCTGCAGTTTTTCCCGGAGTCACCTAGTGCAG” the binding signal was 9080 fluorescence intensity (a.u.).
With “CCCTCCCCGTCGCCGTCACTCTCGCTCTCGCGCTCCCAGCCGGAGTCACCTAGTGCAG” the binding signal was 8210 fluorescence intensity (a.u.).
“GGCAATTATAGTCAACTTTATCCGTTAGAGAGACATTCATCGGAGTCACCTAGTGCAG” was tested, and the binding signal was 9500 fluorescence intensity (a.u.).
“CCCTGCACGCATCCTCTCCGCCATTTTTCCGCCGCATCTGCGGAGTCACCTAGTGCAG” was tested, and the binding signal was 14700 fluorescence intensity (a.u.).
With “CCATTTATAGGCATCATATACTGACCAAACCACACTCCGACGGAGTCACCTAGTGCAG” the binding signal was 8640 fluorescence intensity (a.u.).
With “GACTGGGAGGATGAGGGGTGGGTGGGTGTGGCTGCTTCTGCGGAGTCACCTAGTGCAG” the binding signal was 19100 fluorescence intensity (a.u.).
In the case of “TTGGGGCGTGGGCGGTGGCGTGTTCAAGGCGGGGAGCTACCGGAGTCACCTAGTGCAG”, the binding signal is reported as 11600 fluorescence intensity (a.u.).
For “CGTATCGCGCGTGATCTCTCGTCGTCAACCGCTGCTTGCTCGGAGTCACCTAGTGCAG”, the binding signal was 8700 fluorescence intensity (a.u.).
In the case of “TTATAATACTGTATTCTTTCACACATCACCTTTTATCTCACGGAGTCACCTAGTGCAG”, the binding signal is reported as 8360 fluorescence intensity (a.u.).
With “CTTTCCCCGCGCCATCGATCCACGCCATTATATAGCTGTCCGGAGTCACCTAGTGCAG” the binding signal was 10800 fluorescence intensity (a.u.).
“AAGCAAAACCCTAGACTCCTCCTTAGTCCTCAGTCCTCATCGGAGTCACCTAGTGCAG” was tested, and the binding signal was 8040 fluorescence intensity (a.u.).
In the case of “ACCACCGTTATATCAAGAACTACTCTCTTCCGCATTTAAGCGGAGTCACCTAGTGCAG”, the binding signal is reported as 8160 fluorescence intensity (a.u.).
With “GCGGGCCCCACACCCTCGTACTTCGCTTGCTGTAAACTGACGGAGTCACCTAGTGCAG” the binding signal was 10100 fluorescence intensity (a.u.).
With “TCAAACATATTTTAAAAAGTCAACGGTGTCAAACATTTAGCGGAGTCACCTAGTGCAG” the binding signal was 9250 fluorescence intensity (a.u.).
With “TTGATTCAAACTCGTCCCACCAATCTTTCCCATTGATTCGCGGAGTCACCTAGTGCAG” the binding signal was 9180 fluorescence intensity (a.u.).
“TCACACAGATAGCCACGCCGCCGCCGCCGCCTCCGCCTGACGGAGTCACCTAGTGCAG” was tested, and the binding signal was 8880 fluorescence intensity (a.u.).
In the case of “AAGTGATATATCACCTATTGATTTATGTATCAACTTTTTTCGGAGTCACCTAGTGCAG”, the binding signal is reported as 8600 fluorescence intensity (a.u.).
In the case of “ATGTCTGTATCTGTTATTGTTTCTATTGTGTCTGATCCAACGGAGTCACCTAGTGCAG”, the binding signal is reported as 8980 fluorescence intensity (a.u.).
“GCCCCACCATATCCTTAAGAGCCCATACAGGATCGTTTCTCGGAGTCACCTAGTGCAG” was tested, and the binding signal was 8340 fluorescence intensity (a.u.).
For “AGTCGTCGTCTCGCCGCATTATTATTTTTTTTCTTCGTCTCGGAGTCACCTAGTGCAG”, the binding signal was 8400 fluorescence intensity (a.u.).
In the case of “AGGGTTAGGGTTTTTCTACTTTTATTTTTTTGTGTTTTTTCGGAGTCACCTAGTGCAG”, the binding signal is reported as 15800 fluorescence intensity (a.u.).
With “GGTGGCGTGCAGGGTGGAGCGGGAGGGCGGCGGCGGGTGGCGGAGTCACCTAGTGCAG” the binding signal was 17300 fluorescence intensity (a.u.).
For “ATATATGGTTTCTGATTTATTAACATTGTATTCTAATGTTCGGAGTCACCTAGTGCAG”, the binding signal was 8740 fluorescence intensity (a.u.).
“CCGCTTGATTTATGATTTATTGATGGCATCGCGTATACACCGGAGTCACCTAGTGCAG” was tested, and the binding signal was 8120 fluorescence intensity (a.u.).
In the case of “GTGTTTAGGCACTGTAGTCATGCCCGTCCAATCCTGCAGGCGGAGTCACCTAGTGCAG”, the binding signal is reported as 8480 fluorescence intensity (a.u.).
In the case of “ATTACACCAGCCATTACACCAGCTGCGGCCGGCTGCTTTTCGGAGTCACCTAGTGCAG”, the binding signal is reported as 9500 fluorescence intensity (a.u.).
In the case of “GCTTCCTTGTCCGATTTGGTGGTTGATTCGTGTTTTTGCTCGGAGTCACCTAGTGCAG”, the binding signal is reported as 9300 fluorescence intensity (a.u.).
For “TCTTGTATTTTTGACTTTTTGTCTCTCGAGAGGACATCCCCGGAGTCACCTAGTGCAG”, the binding signal was 10500 fluorescence intensity (a.u.).
In the case of “TAACAATTTTTTAAAATAACTTTTCTATCCACTTTTTTTACGGAGTCACCTAGTGCAG”, the binding signal is reported as 9110 fluorescence intensity (a.u.).
With “TATTTAGTTTTTGGTTGTGTGTGTGATTTGTTCTTCATTCCGGAGTCACCTAGTGCAG” the binding signal was 14000 fluorescence intensity (a.u.).
With “TACTTTTCTTCTTCCGTAAATTCATACCACCTTACATTTTCGGAGTCACCTAGTGCAG” the binding signal was 8900 fluorescence intensity (a.u.).
“AACTTCCTTTCACTCATCGAACGGCACCCAAACATCTTTCCGGAGTCACCTAGTGCAG” was tested, and the binding signal was 9350 fluorescence intensity (a.u.).
For “TATGCCACCCCATGCCCGCCTCTTCTCGCCACCCACAACCCGGAGTCACCTAGTGCAG”, the binding signal was 10600 fluorescence intensity (a.u.).
